Structures are written as SMILES. This is one part of the list. Shown are side measurements of this screen, not its main read-out; they come without a call. The list favours compounds with an active or inconclusive main result. Words in brackets tell the shape of the fitted curve; partial curves, single points and poor fits give uncertain potencies.

A short description of the test: qHTS Assay for Lipid Storage Modulators in Drosophila S3 Cells.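 On cell number change: cells counted by Cell Tracker Red CMTPX staining in the red channel.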 The settings on record: BODIPY lipid droplet fluorescence, 18-24 h; for cell number change: measured here: cell count max response, cells fed with added oleic acid. In short, it runs like this: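 Drosophila S3 cells loaded with oleic acid (400 uM, as added) and compounds at several concentrations; lipid droplets imaged by 488-nm laser-scanning cytometry, 500–530 nm intensity and object ratio to cell channel. Percent activity normalized to 20 uM Triacsin C.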
(In general: qHTS replaces the single test concentration by a dilution series.)

Where [1] appears, read: measured here: lipid fluorescence (Fed channel) AC50, cells fed with added oleic acid.
Where [2] appears, read: measured here: cell number channel AC50, cells fed with added oleic acid.

In the case of `O=S(=O)(Nc1cccc2cn[nH]c12)c1ccc(F)cc1`, the cell number change is 0.391%. Also, under setting [1], the AC50 is 0.0184 µM [rising, full curve].

With `COc1ccccc1C(=O)NNC(=O)C(=O)N1CCCCC1`, the cell number change was -25.8%.

On to `Cc1ccc(C(=O)Cn2nc(C)c([N+](=O)[O-])c2C)c(C)c1`, for which the cell number change is 42%. Further, the AC50 under setting [2] was 29.1 µM [rising, single point]. Moreover, the AC50 under setting [1] was 29.1 µM [rising, single point].

Regarding `COc1ccccc1-c1cc(C(F)(F)F)nc(S(=O)(=O)CCCC(=O)Nc2cccnc2Cl)n1`, the cell number change was -52.4%.

Turning to `COC(=O)c1ccccc1NC(=O)c1ccc(-c2ccccc2F)o1`, the cell number change was -4.12%. The AC50 under setting [1] was 0.0259 µM [rising, full curve].

For the compound `COc1ccc(NC(=O)CCCNC(=O)Cn2cnc3sc(C)c(C)c3c2=O)cc1Cl`, the cell number change was 20.1%. Besides, the AC50 under setting [1] is 4.11 µM [rising, full curve].

Consider `c1ccc(OCc2noc(CN3CC[C@@H]4CCCC[C@H]4C3)n2)cc1`, for which the cell number change was found to be 8.88%.

Consider `CCOCCCN(Cc1cc2cc(C)cc(C)c2[nH]c1=O)C(=O)N(CC)CC`, for which the cell number change is -19.4%. Besides, the AC50 under setting [2] was 0.411 µM [rising, single point].

`O=C(c1ccccc1)c1coc2c1C(=O)c1ccccc1C2=O`: the cell number change was -36.5%. Besides, the AC50 under setting [2] is 0.13 µM [falling, full curve]. Besides, the AC50 under setting [1] is 20.6 µM [falling, single point].

Turning to `CC(C)CC(NS(=O)(=O)c1cccc(C(=O)O)c1)C(=O)O` (stereo not drawn), the cell number change is -14.2%.

For `CN(C)c1ccc(-c2nn3c(-c4ccc(Cl)cc4)nnc3s2)cc1`, the cell number change was -10.4%.

For the compound `c1ccc2c(c1)OCCc1c-2[nH]c2ccccc12`, the cell number change is 21.8%. In addition, under setting [1], the AC50 was 29.1 µM [falling, single point].

For `COc1cc(OC)c(NC(=O)CCNC(=O)Cn2ccc3ccccc3c2=O)cc1Cl`, the cell number change is -18.1%.

As to `COc1ccc(N2C(=O)CSC2c2cccc(OC)c2OC)cc1` (stereo not drawn), the cell number change is 16.1%. The AC50 under setting [1] is 0.103 µM [falling, full curve, poor fit].

Turning to `COc1ccc(C(=O)COC(=O)CCC(=O)Nc2ccc(C(C)=O)cc2)cc1`, the cell number change was found to be 22.1%.

For `O=C(Cn1nnc(-c2ccccc2)n1)N/N=C/c1cc([N+](=O)[O-])c(Cl)cc1Cl`, the cell number change is -11.2%.

Regarding `Cc1ccc(-c2csc(NC(=S)NC(=O)c3cccs3)n2)cc1`, the cell number change was determined as 1.29%. For the same compound, under setting [1], the AC50 was 18.4 µM [rising, single point].

As for `CCOc1ccc(N2CC(C(=O)Nc3ccncc3)CC2=O)cc1` (stereo not drawn), the cell number change worked out at 17%. Moreover, the half-maximal activity concentration (AC50) under setting [1] was 6.51 µM [rising, single point].

As for `CCOC(=O)CN(c1ccccc1C)S(=O)(=O)c1ccc(Cl)cc1`, the cell number change is 42.7%. Also, the AC50 under setting [2] is 10.3 µM [rising, partial curve].

As for `c1ccc(-c2noc(CC3CCCCC3)n2)cc1`, the cell number change was -22%. Besides, under setting [1], the AC50 was 35.5 µM [falling, single point].

As for `Cc1ccc2nc(-c3ccc(NC(=O)COC(=O)c4ccc([N+](=O)[O-])o4)cc3)sc2c1`, the cell number change amounted to 36.4%. Also, under setting [2], the AC50 is 7.31 µM [rising, partial curve, poor fit]. For the same compound, the AC50 under setting [1] is 4.11 µM [rising, single point].

In the case of `O=C(CN1C(=O)C2CC=CCC2C1=O)OCC(=O)c1ccc(Cl)c([N+](=O)[O-])c1` (stereo not drawn), the cell number change was -9.38%. Moreover, the AC50 under setting [1] is 29.1 µM [falling, single point].

For `O=C(NC(=S)Nc1ccccc1N1CCCCC1)c1ccc(F)cc1`, the cell number change came to 28.7%. Also, the AC50 under setting [1] was 29.1 µM [rising, single point].

On to `CS(=O)(=O)N1CCC(NC(=O)Nc2ccc(OC(F)(F)F)cc2)CC1`, for which the cell number change was -11.9%. For the same compound, under setting [2], the AC50 is 0.651 µM [rising, partial curve]. Further, the AC50 under setting [1] is 0.092 µM [rising, partial curve].

Regarding `O=C(Cc1ccccc1)Nc1ccc2[nH]ncc2c1`, the cell number change came to 5.52%. For the same compound, the AC50 under setting [1] is 1.64 µM [rising, partial curve].

For `COc1ccccc1CN1CCNC(=O)C1CC(=O)N(C)Cc1nc(C)cs1` (stereo not drawn), the cell number change worked out at 5.94%.

For the compound `C=CCc1cc(/C=C2/NC(=O)N(CC(=O)OC)C2=O)cc(OC)c1O`, the cell number change was found to be 4.35%. Also, the AC50 under setting [1] is 3.66 µM [falling, single point].

On to `CCCn1cc(S(=O)(=O)c2ccccc2)c(=O)c2cc(F)c(N3CCN(C)CC3)cc21`, for which the cell number change amounted to 24.8%. Further, under setting [1], the AC50 is 0.82 µM [rising, partial curve, poor fit].

As for `COCC1CCCCN1C(=O)C1CCN(c2nc(-c3ccccc3)nc3c2CCC3)CC1` (stereo not drawn), the cell number change is -3.96%. Besides, the AC50 under setting [2] was 5.8 µM [falling, partial curve].

Turning to `Nc1c(C(=O)NCc2ccco2)nnn1CC(=O)Nc1ccc2c(c1)OCO2`, the AC50 under setting [1] is 0.82 µM [rising, single point].

Turning to `O=C(CCc1ccccc1)NC(=S)NCc1ccco1`, the cell number change was determined as 20.6%. In addition, under setting [2], the AC50 was 0.92 µM [falling, full curve]. The AC50 under setting [1] was 0.58 µM [falling, full curve].

As for `COCCn1c(SCC(=O)/C=C2\N(C)c3ccccc3C2(C)C)nnc1-c1ccncc1`, the AC50 was 2.31 µM [rising, partial curve] under setting [2] and 1.84 µM [rising, full curve] under setting [1].

`CCC(C)(C)NC(=O)C(c1ccc(OC)cc1)N(C(=O)CCC(=O)Nc1cc(C)on1)c1ccccc1F` (stereo not drawn): the cell number change worked out at 18.3%. Also, the AC50 under setting [1] was 0.326 µM [rising, partial curve].

In the case of `Cc1ccc(-n2c(SCC3CNC(=O)O3)nnc2-c2ccccc2)cc1C` (stereo not drawn), the cell number change was 11.1%. The AC50 under setting [1] is 14.6 µM [rising, single point].

Turning to `CCOC(=O)C(CCCOc1cccc(CC)c1)C(=O)OCC`, the cell number change stood at 116%. In addition, the AC50 under setting [2] is 20.6 µM [rising, single point]. The AC50 under setting [1] was 0.82 µM [falling, single point].

As to `O=C(O)C(NS(=O)(=O)c1ccc(F)cc1)c1ccccc1` (stereo not drawn), the cell number change is -93%. Moreover, the AC50 under setting [2] was 18.4 µM [falling, single point].

For `CCCCN(C(C)=O)C1CC(=O)N(c2ccc(OCCC)cc2)C1=O` (stereo not drawn), the cell number change is 14.1%. In addition, the AC50 under setting [1] was 25.9 µM [rising, single point].

As to `CCOCCCn1c(SCC(=O)NCc2ccc3c(c2)OCO3)nc2ccccc2c1=O`, the cell number change stood at 6.58%. Also, under setting [2], the AC50 is 0.651 µM [rising, partial curve].

For the compound `CC1CCCCN1S(=O)(=O)c1ccc(S(=O)(=O)N2CCN(c3ccc(F)cc3)CC2)cc1` (stereo not drawn), the cell number change is -12.6%. Moreover, under setting [2], the AC50 is 2.06 µM [falling, partial curve, poor fit]. Moreover, the AC50 under setting [1] was 0.731 µM [rising, single point].

As for `O=C(c1cc2c(s1)-c1ccccc1OC2)N1CCN(c2ccccn2)CC1`, the cell number change is -2.48%.

With `O=C(NCc1cccnc1)C(=O)Nc1nc2ccccc2s1`, the cell number change was found to be 39.1%. Under setting [2], the AC50 is 29.1 µM [rising, single point]. Further, the AC50 under setting [1] was 29.1 µM [rising, single point].

For the compound `COc1cc2c(cc1OC)CN(C(=O)c1cc(=O)c3ccccc3o1)CC2`, the cell number change is -0.4%.

For the compound `COc1ccccc1-n1c(-c2ccc(NS(C)(=O)=O)cc2)n[nH]c1=S`, the cell number change was -54.8%. Besides, the AC50 under setting [2] is 16.4 µM [falling, single point].

For `CCCOc1ccccc1C1NC(=O)NC(C)=C1C(=O)OCc1ccccc1` (stereo not drawn), the cell number change is -36.8%. The AC50 under setting [2] was 29.1 µM [falling, single point]. For the same compound, the AC50 under setting [1] is 29.1 µM [falling, single point].

As to `CCOC(=O)C1CCN(S(=O)(=O)c2cccc(-c3cn4cccnc4n3)c2)CC1`, the cell number change was -25.7%. Besides, the AC50 under setting [1] was 5.17 µM [rising, partial curve].

With `CC(=O)c1ccc(OCC(=O)Nc2ccc3nc(C)sc3c2)cc1`, the AC50 under setting [1] is 2.31 µM [falling, partial curve].

For the compound `CCc1ccc2c(c1)cc(CN(C(=S)Nc1ccc(Cl)cc1)C1CC1)c1nnnn12`, the AC50 under setting [2] is 0.259 µM [rising, full curve].

As to `Cc1ccc(C)c(S(=O)(=O)NCc2ccc(C(=O)N3CCN(C)CC3)cc2)c1`, the cell number change was -1.62%. Also, the AC50 under setting [1] was 20.6 µM [falling, partial curve].

Take `COc1ccc(C(=O)NC2CC(C)(C)Cc3c2cnn3-c2ccccc2C)o1` (stereo not drawn): the cell number change was -15.6%. Under setting [1], the AC50 is 29.1 µM [falling, single point].

On to `O=C(Nc1ccccc1Sc1ccccc1)c1ccc(F)cc1`, for which the cell number change is 24.2%. The AC50 under setting [1] was 20.6 µM [rising, partial curve].

Turning to `Cc1ccccc1C(=O)NC(=S)Nc1ccccc1C(=O)O`, the cell number change is -19.7%. Moreover, the AC50 under setting [2] is 0.0731 µM [falling, full curve, poor fit]. Besides, the AC50 under setting [1] is 0.0651 µM [falling, full curve, poor fit].

For the compound `O=C1Nc2ccccc2C12Nc1ccccc1-c1nc3ccccc3n12` (stereo not drawn), the cell number change was -55.3%. Further, the AC50 under setting [2] was 20.6 µM [falling, partial curve].

For `O=C(/C=C(O)/C=C/c1ccc(O)cc1)/C=C/c1ccc(O)cc1`, the cell number change was -99.8%. The AC50 under setting [2] was 8.2 µM [falling, partial curve]. Under setting [1], the AC50 is 14.6 µM [falling, partial curve].

For the compound `O=C(O)c1cccnc1NC1CCCC1`, the AC50 under setting [1] is 0.58 µM [falling, single point].

`CCCOc1ccc(OCCCCNC(C)CC)cc1` (stereo not drawn): the cell number change is -44.3%. For the same compound, the AC50 under setting [2] is 29.1 µM [falling, single point].

On to `CCN(CC)c1ccc2c(-c3ccc(S(=O)(=O)O)cc3S(=O)(=O)[O-])c3ccc(=[N+](CC)CC)cc-3oc2c1`, for which the cell number change was -89.2%. Besides, under setting [1], the AC50 was 0.731 µM [falling, full curve].

Consider `CC(C)CC(OC(=O)c1cccs1)C(=O)NCC1CCCO1` (stereo not drawn), for which the cell number change was -12%.

As for `Cc1occc1C(=O)Nc1cccc(C(=O)O)c1`, the cell number change was -56.6%. Also, the AC50 under setting [2] is 5.8 µM [falling, full curve]. Besides, the AC50 under setting [1] is 4.11 µM [falling, full curve].

For the compound `CN(C)C(CNC(=O)c1cccc(S(=O)(=O)NCc2ccccc2)c1)c1ccco1` (stereo not drawn), the cell number change was 119%. The AC50 under setting [2] is 20.6 µM [rising, single point].

`O=C(CC1CC2CCC1C2)NCCc1ccc(Cl)cc1` (stereo not drawn): the cell number change amounted to 12.5%. Moreover, under setting [1], the AC50 was 0.731 µM [rising, partial curve, poor fit].

With `Cc1ccc(OCCC(=O)OCC(=O)N2CCN(S(=O)(=O)c3ccc(C)cc3)CC2)cc1`, the cell number change amounted to 3.52%. For the same compound, the AC50 under setting [1] was 3.66 µM [rising, partial curve].

One may read the AC50 as the concentration giving half of the maximal activity seen.

For the origin of these results see PubChem BioAssay AID2685 (National Center for Advancing Translational Sciences (NCATS), 2010).
